# Results from PubChem BioAssay (NCATS).
# Protein sequences, listed by entry. Tags and fused reporters are not part of them. Lines headed by an entry give the natural chain unless they say otherwise; changes in a name come on top. Residues count along the entry.
# UniProt Q03181: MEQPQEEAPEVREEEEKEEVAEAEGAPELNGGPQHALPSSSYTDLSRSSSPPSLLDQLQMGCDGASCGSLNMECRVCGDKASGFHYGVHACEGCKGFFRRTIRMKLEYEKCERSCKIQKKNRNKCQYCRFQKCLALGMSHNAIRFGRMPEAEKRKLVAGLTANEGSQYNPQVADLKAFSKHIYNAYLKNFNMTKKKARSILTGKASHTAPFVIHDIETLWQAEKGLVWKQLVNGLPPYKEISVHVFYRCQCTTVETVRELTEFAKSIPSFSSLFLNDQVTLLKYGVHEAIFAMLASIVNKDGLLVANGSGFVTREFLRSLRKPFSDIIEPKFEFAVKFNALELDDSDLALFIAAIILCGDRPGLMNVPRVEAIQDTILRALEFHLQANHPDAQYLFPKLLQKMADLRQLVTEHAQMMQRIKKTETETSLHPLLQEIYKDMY
# UniProt P19793: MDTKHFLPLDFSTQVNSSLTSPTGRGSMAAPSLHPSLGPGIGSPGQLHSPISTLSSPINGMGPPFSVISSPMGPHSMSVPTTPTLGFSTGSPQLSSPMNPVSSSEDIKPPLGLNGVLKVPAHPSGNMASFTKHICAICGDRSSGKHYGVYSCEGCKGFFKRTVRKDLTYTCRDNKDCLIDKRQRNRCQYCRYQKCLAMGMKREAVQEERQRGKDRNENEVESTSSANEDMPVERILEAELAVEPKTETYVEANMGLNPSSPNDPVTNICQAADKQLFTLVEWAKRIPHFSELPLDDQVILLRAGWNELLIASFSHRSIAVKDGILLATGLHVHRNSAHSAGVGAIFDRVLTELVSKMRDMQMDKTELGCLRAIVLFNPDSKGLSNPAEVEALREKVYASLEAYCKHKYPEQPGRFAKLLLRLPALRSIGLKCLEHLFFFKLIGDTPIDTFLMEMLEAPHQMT
# UniProt P08684, whole entry, looked up: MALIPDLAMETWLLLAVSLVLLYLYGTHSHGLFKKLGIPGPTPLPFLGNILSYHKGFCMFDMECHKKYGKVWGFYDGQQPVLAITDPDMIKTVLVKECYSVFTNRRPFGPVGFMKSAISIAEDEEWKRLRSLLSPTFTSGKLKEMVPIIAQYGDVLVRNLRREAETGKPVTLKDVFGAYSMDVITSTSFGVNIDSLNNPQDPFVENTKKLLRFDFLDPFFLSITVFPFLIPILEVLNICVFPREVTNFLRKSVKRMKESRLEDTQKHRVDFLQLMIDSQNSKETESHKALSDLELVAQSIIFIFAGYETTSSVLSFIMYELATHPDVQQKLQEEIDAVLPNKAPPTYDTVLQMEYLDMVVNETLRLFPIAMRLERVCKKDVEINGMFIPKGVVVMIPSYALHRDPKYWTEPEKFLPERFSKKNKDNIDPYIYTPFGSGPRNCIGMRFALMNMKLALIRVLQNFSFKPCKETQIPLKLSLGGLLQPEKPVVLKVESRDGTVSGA
# UniProt P10828: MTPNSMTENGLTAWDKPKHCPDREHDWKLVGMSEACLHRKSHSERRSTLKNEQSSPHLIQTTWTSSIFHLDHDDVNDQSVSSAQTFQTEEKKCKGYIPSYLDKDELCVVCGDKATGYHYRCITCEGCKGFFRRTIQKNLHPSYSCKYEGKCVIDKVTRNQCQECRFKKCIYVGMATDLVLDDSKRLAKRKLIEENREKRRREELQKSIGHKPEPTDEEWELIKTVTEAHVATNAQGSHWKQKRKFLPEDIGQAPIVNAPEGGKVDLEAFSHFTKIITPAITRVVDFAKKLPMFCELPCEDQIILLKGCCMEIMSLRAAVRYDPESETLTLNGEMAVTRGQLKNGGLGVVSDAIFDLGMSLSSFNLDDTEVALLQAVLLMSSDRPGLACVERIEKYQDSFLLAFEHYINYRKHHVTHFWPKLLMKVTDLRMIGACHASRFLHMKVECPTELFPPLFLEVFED
# UniProt Q07869: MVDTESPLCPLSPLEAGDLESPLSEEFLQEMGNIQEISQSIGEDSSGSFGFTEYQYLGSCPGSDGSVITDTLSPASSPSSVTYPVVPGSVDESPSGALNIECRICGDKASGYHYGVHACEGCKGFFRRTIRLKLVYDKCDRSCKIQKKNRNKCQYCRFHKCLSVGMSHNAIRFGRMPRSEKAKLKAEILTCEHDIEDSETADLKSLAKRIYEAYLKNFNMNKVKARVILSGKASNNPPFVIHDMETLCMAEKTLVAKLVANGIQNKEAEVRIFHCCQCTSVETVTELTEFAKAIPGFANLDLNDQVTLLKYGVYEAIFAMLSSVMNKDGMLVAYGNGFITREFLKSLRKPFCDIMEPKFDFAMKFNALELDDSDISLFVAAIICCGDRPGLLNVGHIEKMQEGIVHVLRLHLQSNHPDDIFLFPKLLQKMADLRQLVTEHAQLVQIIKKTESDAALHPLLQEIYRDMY
# UniProt P51449: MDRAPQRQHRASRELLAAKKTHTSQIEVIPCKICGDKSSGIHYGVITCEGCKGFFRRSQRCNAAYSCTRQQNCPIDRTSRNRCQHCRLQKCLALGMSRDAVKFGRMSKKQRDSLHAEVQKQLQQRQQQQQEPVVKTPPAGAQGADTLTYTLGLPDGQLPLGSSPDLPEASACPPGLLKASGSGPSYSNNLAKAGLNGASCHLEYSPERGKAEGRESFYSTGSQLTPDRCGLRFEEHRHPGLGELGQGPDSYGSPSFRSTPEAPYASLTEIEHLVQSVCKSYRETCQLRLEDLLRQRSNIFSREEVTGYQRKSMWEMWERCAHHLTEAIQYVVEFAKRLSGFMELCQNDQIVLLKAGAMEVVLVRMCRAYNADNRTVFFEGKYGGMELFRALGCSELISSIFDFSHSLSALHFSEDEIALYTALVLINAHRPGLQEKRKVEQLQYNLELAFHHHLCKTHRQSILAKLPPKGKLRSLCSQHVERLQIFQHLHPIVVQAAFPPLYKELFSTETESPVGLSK
# UniProt P10635, whole entry, looked up: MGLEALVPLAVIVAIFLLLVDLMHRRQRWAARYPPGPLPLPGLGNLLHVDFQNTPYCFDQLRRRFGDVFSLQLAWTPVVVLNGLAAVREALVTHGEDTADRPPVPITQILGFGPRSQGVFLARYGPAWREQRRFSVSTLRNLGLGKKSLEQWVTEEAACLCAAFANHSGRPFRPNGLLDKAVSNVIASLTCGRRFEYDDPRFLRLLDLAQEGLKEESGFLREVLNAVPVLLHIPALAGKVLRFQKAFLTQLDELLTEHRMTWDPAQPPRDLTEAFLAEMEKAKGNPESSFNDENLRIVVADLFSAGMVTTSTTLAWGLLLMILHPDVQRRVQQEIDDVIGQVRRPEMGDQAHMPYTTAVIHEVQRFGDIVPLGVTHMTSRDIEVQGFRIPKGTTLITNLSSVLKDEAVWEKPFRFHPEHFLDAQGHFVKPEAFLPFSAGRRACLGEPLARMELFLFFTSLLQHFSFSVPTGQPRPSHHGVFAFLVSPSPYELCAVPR
# UniProt Q27686, 2-499 E452W: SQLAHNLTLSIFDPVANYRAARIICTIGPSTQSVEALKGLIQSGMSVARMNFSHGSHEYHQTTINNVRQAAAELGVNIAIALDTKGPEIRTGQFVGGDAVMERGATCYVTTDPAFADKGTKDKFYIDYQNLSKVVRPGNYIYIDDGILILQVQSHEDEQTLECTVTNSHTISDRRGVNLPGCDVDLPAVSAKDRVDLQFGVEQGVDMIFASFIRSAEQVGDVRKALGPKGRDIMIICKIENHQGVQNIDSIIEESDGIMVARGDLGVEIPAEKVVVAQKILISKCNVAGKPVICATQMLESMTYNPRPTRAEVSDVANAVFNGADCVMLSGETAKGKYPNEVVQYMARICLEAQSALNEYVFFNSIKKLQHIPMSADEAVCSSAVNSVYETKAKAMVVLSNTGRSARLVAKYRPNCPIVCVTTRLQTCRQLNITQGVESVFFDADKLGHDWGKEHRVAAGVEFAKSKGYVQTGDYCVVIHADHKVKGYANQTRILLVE
# UniProt P33261, whole entry, looked up: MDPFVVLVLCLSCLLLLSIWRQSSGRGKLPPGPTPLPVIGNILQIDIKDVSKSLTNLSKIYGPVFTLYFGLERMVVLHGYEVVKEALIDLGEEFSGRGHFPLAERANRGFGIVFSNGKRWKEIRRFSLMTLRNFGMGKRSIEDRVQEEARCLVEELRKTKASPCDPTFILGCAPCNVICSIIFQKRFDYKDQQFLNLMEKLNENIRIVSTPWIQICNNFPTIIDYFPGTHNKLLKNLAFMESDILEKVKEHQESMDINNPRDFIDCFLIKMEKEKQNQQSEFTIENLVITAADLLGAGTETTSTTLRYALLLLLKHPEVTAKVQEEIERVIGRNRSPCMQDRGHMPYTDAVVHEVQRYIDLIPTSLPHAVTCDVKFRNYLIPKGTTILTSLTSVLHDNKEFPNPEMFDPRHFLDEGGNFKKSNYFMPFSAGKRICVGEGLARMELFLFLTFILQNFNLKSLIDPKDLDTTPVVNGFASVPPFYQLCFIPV
# UniProt Q9UNA4: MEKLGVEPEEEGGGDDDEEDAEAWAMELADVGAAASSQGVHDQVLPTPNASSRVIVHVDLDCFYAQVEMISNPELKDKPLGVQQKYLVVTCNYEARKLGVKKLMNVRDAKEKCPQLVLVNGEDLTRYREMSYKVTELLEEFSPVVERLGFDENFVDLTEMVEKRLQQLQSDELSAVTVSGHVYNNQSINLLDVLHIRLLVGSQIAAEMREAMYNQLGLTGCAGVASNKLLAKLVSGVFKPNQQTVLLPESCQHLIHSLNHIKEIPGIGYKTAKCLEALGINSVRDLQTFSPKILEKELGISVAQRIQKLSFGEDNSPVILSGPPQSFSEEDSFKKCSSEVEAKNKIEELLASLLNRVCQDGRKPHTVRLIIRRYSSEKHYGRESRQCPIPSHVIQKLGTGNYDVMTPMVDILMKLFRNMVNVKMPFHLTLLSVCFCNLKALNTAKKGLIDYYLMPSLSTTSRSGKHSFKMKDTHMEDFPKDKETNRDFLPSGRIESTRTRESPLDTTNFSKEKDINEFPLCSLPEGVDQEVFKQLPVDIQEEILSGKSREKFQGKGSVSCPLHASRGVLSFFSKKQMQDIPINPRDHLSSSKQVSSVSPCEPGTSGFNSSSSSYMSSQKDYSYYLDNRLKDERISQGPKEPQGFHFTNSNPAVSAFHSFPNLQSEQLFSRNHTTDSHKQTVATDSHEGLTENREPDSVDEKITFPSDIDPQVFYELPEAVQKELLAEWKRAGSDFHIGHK
# UniProt Q14191, whole entry, looked up: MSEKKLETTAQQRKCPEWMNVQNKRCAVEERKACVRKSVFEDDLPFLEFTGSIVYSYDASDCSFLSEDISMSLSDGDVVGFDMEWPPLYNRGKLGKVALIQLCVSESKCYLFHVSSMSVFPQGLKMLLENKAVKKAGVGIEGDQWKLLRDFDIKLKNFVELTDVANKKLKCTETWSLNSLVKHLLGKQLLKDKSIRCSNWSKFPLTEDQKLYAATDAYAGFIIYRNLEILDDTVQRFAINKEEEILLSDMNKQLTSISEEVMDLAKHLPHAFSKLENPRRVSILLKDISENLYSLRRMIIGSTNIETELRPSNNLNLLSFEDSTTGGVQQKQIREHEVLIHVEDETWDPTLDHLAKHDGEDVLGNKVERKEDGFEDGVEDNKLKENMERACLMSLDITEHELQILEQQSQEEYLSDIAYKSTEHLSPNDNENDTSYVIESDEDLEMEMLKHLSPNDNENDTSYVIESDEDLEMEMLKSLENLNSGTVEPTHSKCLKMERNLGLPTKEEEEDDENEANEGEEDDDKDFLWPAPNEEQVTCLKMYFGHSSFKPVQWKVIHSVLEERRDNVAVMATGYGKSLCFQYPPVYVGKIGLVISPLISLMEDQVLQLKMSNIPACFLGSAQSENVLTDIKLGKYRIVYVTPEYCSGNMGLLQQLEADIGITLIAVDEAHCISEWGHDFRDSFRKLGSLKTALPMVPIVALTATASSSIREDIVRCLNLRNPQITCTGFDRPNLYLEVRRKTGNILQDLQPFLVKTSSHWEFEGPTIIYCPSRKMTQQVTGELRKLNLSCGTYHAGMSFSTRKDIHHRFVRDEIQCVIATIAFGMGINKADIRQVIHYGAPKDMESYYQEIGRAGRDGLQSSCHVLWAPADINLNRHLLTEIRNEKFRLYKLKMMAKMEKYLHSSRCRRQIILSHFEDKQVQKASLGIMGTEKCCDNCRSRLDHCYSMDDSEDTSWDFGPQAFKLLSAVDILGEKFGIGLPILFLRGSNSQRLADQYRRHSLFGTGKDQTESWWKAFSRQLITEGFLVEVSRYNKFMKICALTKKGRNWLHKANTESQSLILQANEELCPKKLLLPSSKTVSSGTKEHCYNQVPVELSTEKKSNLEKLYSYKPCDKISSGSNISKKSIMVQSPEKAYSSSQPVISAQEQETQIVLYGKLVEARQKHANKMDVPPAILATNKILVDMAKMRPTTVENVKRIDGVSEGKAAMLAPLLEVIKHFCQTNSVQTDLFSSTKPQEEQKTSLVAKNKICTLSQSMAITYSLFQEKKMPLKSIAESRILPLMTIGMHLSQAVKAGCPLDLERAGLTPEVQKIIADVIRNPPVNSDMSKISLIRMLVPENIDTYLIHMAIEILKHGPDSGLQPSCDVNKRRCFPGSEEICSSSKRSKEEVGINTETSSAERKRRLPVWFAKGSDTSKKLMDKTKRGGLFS
# The inconclusive results got no clear call from the source; some entries with a clear call stand among them for comparison. For some of these results: Potencies of inconclusive entries are doubtful fits and often do not repeat. Active and inactive are the calls of the source. Unless noted, the call rests on the fitted dose curve; in most records, active means well fitted curve in the direction sought with a large enough effect; inconclusive means small, poorly fitted or top-dose-only effect, or another doubt; inactive means no such curve, though single readings can be large; an effect the other way counts as inactive or inconclusive.
# Tests used:
# [1] = target: Peroxisome proliferator-activated receptor delta (Homo sapiens) (UniProt Q03181); assay: qHTS assay for small molecule antagonists of peroxisome proliferator-activated receptor delta signaling (AID 588535; active means well fitted inhibition curve with a large enough effect in the signal ratio, with a control signal flat, not every such curve was filed as active; inconclusive means small, poorly fitted or top-dose-only effect, or effect the other way, or a change in a side signal; inactive means no such curve, though single readings can be large or run the other way; the % refers to the signal ratio); conditions: HEK293T PPARd-UAS-bla, beta-lactamase FRET ratio, 18 h; activity change, negative = inhibition: at 76.7 µM (top of the series)
# Outline: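 Fluorescence from CCF4-loaded GeneBLAzer PPAR-delta-UAS-bla HEK293T cells (2 hrs RT loading) quantified reporter inhibition after an 18 hr, 37 C compound exposure across a titration.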
# [2] = target: Peroxisome proliferator-activated receptor gamma (Homo sapiens) (UniProt P37231); assay: qHTS assay for small molecule antagonists of peroxisome proliferator-activated receptor gamma signaling (AID 588537; active means well fitted inhibition curve with a large enough effect in the signal ratio, with a control signal flat, not every such curve was filed as active; inconclusive means small, poorly fitted or top-dose-only effect, or effect the other way, or a change in a side signal; the % refers to the signal ratio;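 further: reporter cells co-stimulated with 50 nM rosiglitazone agonist during compound treatment; % of control where 0% means no effect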); conditions: HEK293 PPARg-UAS-bla, beta-lactamase ratio, antagonist mode
# Outline: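 Fluorescence at 460 and 530 nm (405 nm excitation) reported beta-lactamase cleavage of CCF4 after 2 h room-temperature loading. HEK293 reporter cells in 1% charcoal/dextran-treated FBS had received compound and rosiglitazone for 16 h.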
# [3] = target: Retinoic acid receptor RXR-alpha (Homo sapiens) (UniProt P19793); assay: qHTS assay for small molecule agonists of retinoid X receptor alpha signaling (AID 588544; calls by dose curve;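 further: 0% = DMSO basal wells and 100% = reference agonist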); conditions: HEK293T RXRa-UAS-bla, beta-lactamase reporter, 18 h; activation: at 76.7 µM (top of the series) unless noted
# [4] = qHTS assay to identify small molecules that stimulate interleukin-8 (IL-8) secretion (AID 651758; active means well fitted activation curve with a large enough effect in the signal ratio; inconclusive means small, poorly fitted or top-dose-only effect, or effect the other way, or a change in a side signal; the % refers to the signal ratio; further: 0% is about no effect); conditions: HTRF ratio (665/615); activation: at 92.2 µM (top of the series)
# Outline: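 Compounds are added to THP-1 cells (2000 per well) and left 16 hrs at 37 C. A labeled anti-IL-8 antibody pair is then added, and IL-8 secretion is measured by time-resolved FRET after 1-3 hrs at room temperature.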
# [5] = target: Mitogen-activated protein kinase 10 (Mus musculus) (UniProt Q61831); assay: JNK3 AlphaScreen Assay (AID 530; active means well fitted curve in either direction with a large enough effect, not every such curve was filed as active; inconclusive means small, poorly fitted or top-dose-only effect, or another doubt;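 further: kinase came from lysate of stimulated human HepG2 cells; signal reports phosphorylation of biotinylated GST-cJun 1-79 at Ser73 with 10 µM ATP; on the % scale 0 is the no-effect control and ±100 the full control effect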); conditions: JNK3 lysate, c-Jun phosphorylation; activity change, negative = inhibition: at 57.1 µM (top of the series)
# Outline: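 Activity was read by AlphaScreen after JNK3-containing HepG2 lysate (cytokine pre-activated) phosphorylated biotinylated GST-cJun with 10 uM ATP at room temperature. Phospho-Ser73 cJun antibody with Protein-A acceptor beads provided detection.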
# [6] = target: Cytochrome P450 3A4 (Homo sapiens) (UniProt P08684); assay: qHTS Assay for Inhibitors and Substrates of Cytochrome P450 3A4 (AID 884); further: nearly all actives have a fitted effect of over 50% in size; further: potency means the concentration at half of the fitted maximal effect; on activity change, negative = inhibition: on the % scale 0 is the no-effect control and ±100 the full control effect
# Outline: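 Luminescent readout of luciferin produced by CYP3A4 (20 nM) dealkylation of Luciferin-PPXE, 25 uM (its KM). NADPH-driven reaction ran 60 min at RT after 10 min compound preincubation; data scaled to 57 uM ketoconazole as 100% inhibition.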
# [7] = Cell Viability - LYMP2-004 (AID 966);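 further: plate controls were DMSO only for no effect and tetraoctylammonium bromide control for full effect; nearly all actives have a fitted effect of over 65% in size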
# Outline: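 AC50 values come from Hill modelling of concentration-dependent loss of intracellular ATP, measured by CellTiter-Glo luminescence. Human LYMP2-004 lymphoblastoid cells (2500/well) were exposed to compound for 24 h at 37 C.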
# [8] = target: Retinoic acid receptor RXR-alpha (Homo sapiens) (UniProt P19793); assay: qHTS assay for small molecule antagonists of retinoid X receptor alpha signaling (AID 588546; active means well fitted inhibition curve with a large enough effect in the signal ratio, with a control signal flat, not every such curve was filed as active; inconclusive means small, poorly fitted or top-dose-only effect, or effect the other way, or a change in a side signal; inactive means no such curve, though single readings can be large or run the other way; the % refers to the signal ratio;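 further: cells stimulated with 9-cis-retinoic acid as agonist; on the % scale 0 is the no-effect control and ±100 the full control effect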); conditions: HEK293T RXRa-UAS-bla, beta-lactamase ratio, antagonist mode
# Outline: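 Beta-lactamase reporter inhibition, read as CCF4 fluorescence ratio (ex 405, em 460/530 nm) after 2 h at RT. HEK293T UAS-bla cells, 2500/well, were stimulated with 9-cis-RA at 500 or 100 nM final alongside test compound for 18 h at 37 C.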
# [9] = target: Thyroid hormone receptor beta (Homo sapiens) (UniProt P10828); assay: qHTS assay for small molecule antagonists of thyroid hormone receptor beta signaling (AID 588547; active means well fitted inhibition curve with a large enough effect in the signal ratio, with a control signal flat, not every such curve was filed as active; inconclusive means small, poorly fitted or top-dose-only effect, or effect the other way, or a change in a side signal; the % refers to the signal ratio;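 further: cells stimulated with 0.4 nM T3 agonist during compound exposure; on the % scale 0 is the no-effect control and ±100 the full control effect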); conditions: TR-UAS-bla HEK293, beta-lactamase ratio, antagonist mode, 18 h
# Outline: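 TR-UAS-bla GripTite HEK293 cells in 2% charcoal/dextran FBS medium; compounds 0.59 nM to 92 uM with T3 at 0.4nM final, 18 h at 37 C. Beta-lactamase read by CCF4 fluorescence (460/530 nm); Hill fits gave IC50 and efficacy.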
# [10] = qHTS assay for small molecule agonists of the antioxidant response element (ARE) signaling pathway (AID 651741; active means well fitted activation curve with a large enough effect in the signal ratio; inconclusive means small, poorly fitted or top-dose-only effect, or effect the other way, or a change in a side signal; the % refers to the signal ratio; further: potency means the concentration at half of the fitted maximal effect); conditions: HepG2 ARE-bla reporter, beta-lactamase FRET ratio, 16 h; activation: at 96 µM (top of the series) unless noted
# Outline: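 Stably integrated ARE-beta-lactamase reporter HepG2 cells; 16 h compound incubation, 37 C; LiveBLAzer FRET substrate 2 h at room temperature; fluorescence intensity.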
# [11] = target: Peroxisome proliferator-activated receptor alpha (Homo sapiens) (UniProt Q07869); assay: qHTS assay for small molecule agonists of the peroxisome proliferator-activated receptor alpha (PPARalpha) signaling pathway (AID 651778); conditions: PathHunter PPARalpha complementation, chemiluminescence, 6 h; max response: stronger effect = higher value; further: % of control where 0% means no effect
# Outline: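 Enzyme-fragment complementation assay in which ligand-bound PPARalpha translocates and forms an active enzyme that generates chemiluminescence. Cells were plated overnight, exposed to compound for 6 hr at 37 C, and then given detection reagent for 60 min at room temperature.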
# [12] = target: Nuclear receptor ROR-gamma (Homo sapiens) (UniProt P51449); assay: qHTS assay for small molecule antagonists of the retinoid-related orphan receptor gamma (ROR-gamma) signaling pathway (AID 651802); further: potency means the concentration at half of the fitted maximal effect; nearly all actives have a fitted effect of over 60% in size
# Outline: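 Luminescence (One-Glo, 30 min RT) measured 16 h after compound addition and doxycycline induction at 37C. Reporter: RORE-luciferase under TET-inducible ROR-gamma in CHO cells.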
# [13] = target: Cytochrome P450 2D6 (Homo sapiens) (UniProt P10635); assay: qHTS Assay for Inhibitors and Substrates of Cytochrome P450 2D6 (AID 891); conditions: recombinant CYP2D6, luciferin-ME EGE luminescence; activity change, negative = inhibition: at 57.1 µM (top of the series); further: potency means the concentration at half of the fitted maximal effect; nearly all actives have a fitted effect of over 60% in size
# Outline: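 Luminescent read-out of luciferin formed by 5 nM human CYP2D6 demethylating 30 uM Luciferin-ME EGE (Km level) over 60 min at room temperature after NADPH regeneration addition. Data normalized to full inhibition by 1.43 uM quinidine.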
# [14] = qHTS Assay for Identification of Small Molecule Antagonists for NFkB Signaling Pathway (AID 895; active means well fitted inhibition curve with a large enough effect in the signal ratio, with a control signal flat, not every such curve was filed as active; inconclusive means small, poorly fitted or top-dose-only effect, or effect the other way, or a change in a side signal; the % refers to the signal ratio; further: potency means the concentration at half of the fitted maximal effect); conditions: NFkB beta-lactamase reporter cells, FRET ratio 460/530, stimulated with 10 pM TNF alpha; activity change, negative = inhibition: at 38.3 µM (top of the series)
# Outline: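 ME-180 NFkB-bla cells (beta-lactamase under NFkB response element), plated overnight, treated with compound then 10 pM TNF alpha (about EC50) for 5 hrs at 37 C. LiveBLAzer FRET read at 460/530 nm emission, 405 nm excitation.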
# [15] = qHTS Assay for Identification of Small Molecule Antagonists for Thrombopoietin (TPO) Signaling Pathway (AID 918); conditions: TPO-dependent cell signaling reporter, antagonist mode; activity change, negative = inhibition: at 38.5 µM (top of the series)
# Outline: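 Inhibition read as reduced luciferase luminescence after 24 h at 37 C in IL-3-deprived Ba/F3 cells carrying human TPO receptor and GPIIb-promoter reporter, stimulated with 26 pM TPO (final, its EC50) alongside compound.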
# [16] = target: Pyruvate kinase (Leishmania mexicana) (UniProt Q27686); assay: qHTS Validation Assay for Inhibitors of Leishmania Mexicana Pyruvate Kinase (AID 945);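 further: 0% = DMSO only neutral control wells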
# Outline: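 LmPYK E451W 0.2 nM; 0.5 mM PEP, 0.1 mM ADP, 7 mM MgCl2, 50 mM KCl, imidazole pH 7.2, 0.01% Tween 20, 0.05% BSA; 1 h RT; PKLight luminescence; DMSO-normalized.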
# [17] = target: Cytochrome P450 2C19 (Homo sapiens) (UniProt P33261); assay: qHTS Assay for Inhibitors and Substrates of Cytochrome P450 2C19 (AID 899); further: potency means the concentration at half of the fitted maximal effect; nearly all actives have a fitted effect of over 60% in size
# Outline: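 5 nM human CYP2C19 with 10uM Luciferin-H EGE (at KM) in 50mM KPO4, compound preincubated 10 min at 37C, then NADPH regeneration for 60 min at 37C. Luciferin read by luminescence after detection reagent; normalized to 57uM ketoconazole as full inhibition.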
# [18] = target: Vitamin D3 receptor (Homo sapiens) (UniProt P11473); assay: qHTS for Inhibitors of the vitamin D receptor (VDR): Hit Validation using a Fluorescein Assay (AID 602200); further: potency means the concentration at half of the fitted maximal effect
# Outline: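 Fluorescence polarization: 1.5 uM VDR-LBD, 5 uM LG19078 and 5 nM fluorescein-labeled SRC2-3 peptide (final) with compounds, 2 h at room temperature. Read at Ex 495/Em 520 nm; peptide-only wells served as control.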
# [19] = qHTS for Inhibitors of the vitamin D receptor (VDR): Hit Validation using a Texas Red Assay (AID 602201); further: potency means the concentration at half of the fitted maximal effect
# Outline: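 Fluorescence polarization with 1.5 uM VDR-LBD, LG19078 and 7 nM Texas Red (final). After 2 hours at ambient temperature, read at Ex 595 nm/Em 615 nm.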
# [20] = target: DNA polymerase iota (Homo sapiens) (UniProt Q9UNA4); assay: qHTS for Inhibitors of Polymerase Iota: Confirmatory Assay for Cherry-picked Compounds (AID 720496); conditions: Pol iota primer extension, TAMRA/BHQ fluorescence; further: potency means the concentration at half of the fitted maximal effect
# Outline: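 Enzyme (10 nM Pol iota) and compound sit together for 15 min at room temperature. Adding annealed primer/TAMRA-reporter/BHQ-2-template substrate, 50 nM final, starts the reaction, which is followed by fluorescence over 10 min.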
# [21] = target: Bifunctional 3'-5' exonuclease/ATP-dependent helicase WRN (Homo sapiens) (UniProt Q14191); assay: qHTS for Inhibitors of WRN Helicase: Confirmatory Assay for Cherry-picked Compounds. (AID 720497); further: potency means the concentration at half of the fitted maximal effect; nearly all actives have a fitted effect of over 65% in size
# Outline: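 WRN at 20 nM final was preincubated with compound for 15 min at room temperature; the reaction was started with 100 nM forked duplex oligonucleotide and 2 mM ATP (final). Red fluorescence (ex 525/em 598 nm) was read kinetically, with inhibition normalized to enzyme-only and buffer-only wells.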
smiles,measurement,setting,value
Clc1cc(Cl)c(Cl)cc1Cl,Potency,[1],inactive
same,"activity, negative = inhibition","[2]; activity, negative = inhibition: at 76.8 µM (top of the series)",inconclusive: 13.7%
same,"activity, negative = inhibition",[2]; at 76.8 µM (top of the series),inactive: 5.58%
same,Potency,[3],inactive
same,activation,[4],inconclusive: 4.58%
CCOC(=O)C(C)C(C)=O (stereo not drawn),Potency,[5],inactive
same,Potency,[6],inactive
same,Potency,[7],inactive
same,"activity change, negative = inhibition",[1],inconclusive: -20%
same,max response,[8],inconclusive: -1.46%
same,activity change % (negative = inhibition),[9],inactive: 2.26%
same,Potency,[10],"inconclusive: 75 µM [activator, single point]"
same,activation,[4],inconclusive: 27.5%
same,max response,[11],inactive: -3.29%
same,Potency,[12],"inconclusive: 0.0047 µM [inhibitor, full curve, poor fit]"
c1cncc(-c2cc(NCc3cccs3)ncn2)c1,Potency,[6],active: 2.51 µM
ON(CCc1ccncc1)Cc1ccccc1,Potency,[13],"inconclusive: 6.31 µM [inhibitor, partial curve]"
CC(C)c1ccc2c(c1)CC[C@H]1[C@@](C)(CN)CCC[C@@]21C,Potency,[13],active: 1.26 µM
COc1ccccc1OC[C@H](O)CN1CCN(CC(=O)Nc2c(C)cccc2C)CC1,Potency,[14],"inconclusive: 2.51 µM [inhibitor, single point]"
same,"activity change, negative = inhibition",[15],inconclusive: -15.6% [phenotype inactive]
same,Potency,[16],inactive
C#C[C@@]1(O)CC[C@@H]2[C@@H]3CCC4=CC(=O)CC[C@@H]4[C@H]3CC[C@]21CC,Potency,[17],"inconclusive: 0.0794 µM [inhibitor, full curve]"
CC1=NOC(=O)/C1=C\c1ccc(-c2ccc(Br)cc2)o1,Potency,[18],"inconclusive: 2.82 µM [inhibitor, full curve, poor fit]"
same,Potency,[19],active: 3.16 µM
COc1ccc(N2CCN(C(=O)Cc3ccc(S(=O)(=O)N4CCOCC4)s3)CC2)cc1,Potency,[20],active: 42.3 µM
N=C1/C(=C/c2ccc(-c3cccc(C(=O)O)c3)o2)C(=O)N=C2SC=C(c3ccccc3)N12,Potency,[20],active: 18.9 µM
O=C(O)c1ccc2c(c1)C(=O)/C(=C\c1ccco1)C2=O,Potency,[21],"inconclusive: 27.1 µM [inhibitor, partial curve]"
CCC(=O)c1ccc(CCCCCC(=O)O)s1,Potency,[21],active: 21.5 µM

# Reprinted at random: 2 records from the list, in no set order.
smiles,measurement,setting,value
CCOC(=O)C(C)C(C)=O (stereo not drawn),Potency,[12],"inconclusive: 0.0047 µM [inhibitor, full curve, poor fit]"
same,Potency,[6],inactive
